# Assay results published in PubChem BioAssay AID624297 (National Center for Advancing Translational Sciences (NCATS), 2012).
# Hit rate of the full screen: of about 340,000 compounds, about 6,200 (1.8%) were called active. The shares of active, inactive and inconclusive entries below differ from those in the screen. The call rests on the fitted dose curve; in most records, active means well fitted activation curve with a large enough effect; inconclusive means small, poorly fitted or top-dose-only effect; inactive means no such curve, though single readings can be large or run the other way. A potency beside an inconclusive call is a rough fit, not a confirmed value.
# Experiment: A quantitative high throughput screen for small molecules that induce DNA re-replication in SW480 colon adenocarcinoma cells. Further: nearly all actives have a fitted effect of over 55% in size. On re-replication activation: % of control where 0% means no effect.
# Settings: Hoechst DNA content imaging, 48 h; re-replication activation: at 46.1 µM (top of the series) unless noted
# Procedure, shortened: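 DNA re-replication was detected as more nuclei of elevated Hoechst intensity after 48 hr exposure to compound (23 nL pinned per well of 250 cells).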
# Potency means the concentration at half of the fitted maximal effect.
SMILES,Potency,re-replication activation
COc1ccc(Nc2nc(N)c([N+](=O)[O-])c(N3CCOCC3)n2)cc1,"inconclusive: 1.46 µM [activator, full curve]",–
COc1ccc(/C=C2/SC(=S)N(CCCC(=O)Nc3ccc(O)cc3)C2=O)cc1OC,"inconclusive: 20.6 µM [activator, single point]",–
Nc1nc(Nc2ccccc2F)nc(N2CCCC2)c1[N+](=O)[O-],"inconclusive: 20.6 µM [activator, single point]",–
Cn1c(SCc2nnc(-c3ccccc3)o2)nc2ccccc21,–,inactive: -1.92%
CCc1ccccc1NC(=O)CC(NCc1ccccc1)C(=O)O (centres undefined),–,inactive: -7.85%
CCOc1ccc2nc(NC(=O)c3ccccn3)sc2c1,"inconclusive: 29.1 µM [activator, single point]",–
CCOC(=O)C1CCN(C(=O)c2ccco2)CC1,–,inactive: -5.91%
Cc1ccc(C)c(SCc2noc(C(=O)NCC3CCCO3)c2C(=O)O)c1 (centres undefined),"inconclusive: 6.51 µM [activator, single point]",–
O=C(O)c1ccc(N=Nc2c(O)[nH]c3ccccc23)cc1,active: 23.1 µM,–
COc1ccc(CCN2CC(C(=O)N(C)CCc3cn[nH]c3)CCC2=O)cc1 (centres undefined),–,inactive: -9.9%
O=C(Nc1ccc(Cl)cn1)C1CCN(S(=O)(=O)c2cccs2)CC1,"inconclusive: 20.6 µM [activator, single point]",–
O=C(NCc1ccccc1)c1cnc2n(c1=O)CCS2,"inconclusive: 32.6 µM [activator, partial curve, poor fit]",–
Cc1ccc(S(=O)(=O)NCC(=O)N2CCOCCOCCOCC2)cc1,"inconclusive: 15.8 µM [activator, partial curve, poor fit]",–
O=C(Nc1ccccc1)Nc1ccc(O)c2ccccc12,"inconclusive: 6.51 µM [activator, single point]",–
OCC(O)/C=N/Nc1nc2ccccc2s1 (centres undefined),"inconclusive: 29.1 µM [activator, single point]",–
COc1ccc(CC(=O)NNC2=Nc3cccc4cccc2c34)cc1OC,"inconclusive: 16.4 µM [activator, single point]",–
COc1ccc(/C=N/NC(=O)c2ccccc2)cc1OS(=O)(=O)c1ccccc1,"inconclusive: 23.1 µM [activator, single point]",–
Cn1c(-c2ccc(C#N)cc2)c(C#Cc2ccccc2)c2ccccc21,active: 1.3 µM,–
Cc1cc(C)c(O)c(-c2cc(C(=O)Nc3c(C)n(C)n(-c4ccccc4)c3=O)[nH]n2)c1,"inconclusive: 16.4 µM [activator, partial curve, poor fit]",–
CCOc1cc(/C=C2\CCn3c2nc2cc(Cl)ccc2c3=O)ccc1O,active: 10.3 µM,–
O=C(NNc1ccc(C2CCCCC2)cc1)C(O)(c1ccccc1)c1cccs1 (centres undefined),"inconclusive: 18.4 µM [activator, partial curve, poor fit]",–
C=CCNC(=O)O/N=C/c1csc([N+](=O)[O-])c1,"inconclusive: 0.164 µM [activator, full curve, poor fit]",–
COc1ccc2cc(C(c3nnnn3C3CCCC3)N3CCc4ccccc4C3)c(=O)[nH]c2c1 (centres undefined),"inconclusive: 29.1 µM [activator, single point]",–

SMILES,Potency,re-replication activation
COc1ccc2c(CC(=O)OCc3nc4ccsc4c(=O)[nH]3)coc2c1,–,inactive: -14.8%
CC(=O)c1sc(NC(=O)COc2ccc(C(C)C)c(C)c2)nc1C,"inconclusive: 5.8 µM [activator, single point]",–
CCn1c(C)cc(/C=C2/NC(=O)N(CC(=O)Nc3cccc(C)c3)C2=O)c1C,"inconclusive: 11.6 µM [activator, partial curve, poor fit]",–
COc1ccc(Cn2c(C)nc3c(c2=O)c2nc4ccccc4nc2n3Cc2ccco2)cc1,active: 20.6 µM,–
COc1ccccc1N1C(=O)C2C(C(=O)c3ccccc3)=NN(c3ccc(C)cc3)C2C1=O (centres undefined),"inconclusive: 29.1 µM [activator, single point]",–
Cc1nc2c(cnn2-c2ccccc2)c(=O)[nH]1,–,inactive: -1.49%
COc1ccc(-c2cc(C(=O)Nc3cccnc3Cl)no2)cc1,"inconclusive: 4.61 µM [activator, single point]",–
O=C1NC(=S)N/C1=C/c1ccc2ccccc2c1,"inconclusive: 3.26 µM [activator, single point]",–
COc1ccc(CCNC(=O)CCCOc2cccc(C)c2C)cc1OC,"inconclusive: 29.1 µM [activator, single point]",–
Cc1c(C(=O)NC(Cc2ccccc2)c2nc3ccccc3[nH]2)cccc1[N+](=O)[O-] (centres undefined),"inconclusive: 16.4 µM [activator, partial curve, poor fit]",–
CCOC(=O)c1[nH]c(C)c(C(=O)OCc2ccccc2F)c1C,active: 7.31 µM,–
NS(=O)(=O)c1ccc(NC(=O)CSc2ncnc3ccccc23)cc1,"inconclusive: 9.2 µM [activator, partial curve, poor fit]",–
Cc1cc(O)c(C(=O)/C=C/c2ccccc2Br)c(=O)o1,"inconclusive: 25.9 µM [activator, partial curve, poor fit]",–
COc1ccc(C2c3c(ncn(CCN4CCOCC4)c3=N)Oc3ccc4ccccc4c32)cc1 (centres undefined),"inconclusive: 25.9 µM [activator, single point]",–
Cc1ncc(CN2CCCC(C(=O)Nc3ccc(-c4cccc(F)c4)cc3)C2)cn1 (centres undefined),"inconclusive: 29.1 µM [activator, single point]",–
Cc1c(C(=O)N2CCOCC2)oc2ccccc12,–,inactive: -11.3%
COc1ccc(CCn2c(N)c(S(=O)(=O)c3cccs3)c3nc4ccccc4nc32)cc1OC,–,inactive: 0.838%
Cc1cccc(Nc2nc(N)nc(CCl)n2)c1C,"inconclusive: 0.82 µM [activator, full curve, poor fit]",–
N#CC1=C(N)C(C#N)(C#N)C(c2ccncc2)C2CN(C(=O)OCc3ccccc3)CC=C12 (centres undefined),"inconclusive: 18.4 µM [activator, single point]",–
COc1ccc(NC(=S)Nc2ccc(C)c(Cl)c2)cc1OC,–,inactive: 1.7%
C=C(C)Cn1c(SCC(=O)N/N=C/c2cccc(O)c2)nc2ccccc2c1=O,"inconclusive: 18.4 µM [activator, single point]",–
O=c1[nH]c2cc3c(cc2cc1C(c1nnnn1Cc1ccccc1)N1CCCCCC1)OCCO3 (centres undefined),active: 20.6 µM,–
COc1ccc(CN(C(=O)c2ccco2)c2ccc(C)c(C)c2)cc1,active: 16.4 µM,–

# Three entries from above in a different format.
SMILES | Potency | re-replication activation
CCOC(=O)C1CCN(C(=O)c2ccco2)CC1 | – | inactive: -5.91%
Cc1cc(O)c(C(=O)/C=C/c2ccccc2Br)c(=O)o1 | inconclusive: 25.9 µM [activator, partial curve, poor fit] | –
Cc1c(C(=O)N2CCOCC2)oc2ccccc12 | – | inactive: -11.3%

# (listing goes on)

SMILES,Potency,re-replication activation
O=C(c1cnn(-c2ccc(Cl)cc2)c1)c1ccccc1O,"inconclusive: 0.231 µM [activator, full curve, poor fit]",–
N#Cc1ccc(C(=O)OCCCc2cc3ccccc3c(=O)o2)cc1,–,inactive: 1.54%
Fc1ccc(C2=NNC(=NCc3ccccc3)SC2)cc1F,"inconclusive: 29.1 µM [activator, single point]",–
COc1cc(OC)c2c(c1)O/C(=C\c1ccccc1)C2=O,"inconclusive: 29.1 µM [activator, single point]",–
Cn1c(/C(C#N)=C/c2ccncc2)nc2ccccc21,active: 18.4 µM,–
CO[C@H]1C[C@@H](O[C@@H]2[C@H](C)[C@H](O[C@@H]3O[C@@H](C)C[C@@H](N(C)C)[C@@H]3O)[C@H](C)C[C@]3(CO3)C(=O)[C@H](C)[C@H](O)[C@H](C)[C@H](C)OC(=O)[C@@H]2C)O[C@@H](C)[C@H]1O,–,inactive: 1.54% [at 20.6 µM]
CCN(c1ccc(C)c(C)c1)S(=O)(=O)c1ccc2c(c1)CCN2C(=O)CCC(=O)O,"inconclusive: 18.4 µM [activator, single point]",–
CCCCNC(=O)C(=O)N/N=C/c1cccc(Br)c1,–,inactive: -5.38%
O=C(CNC(=O)c1cccs1)N/N=C/c1cccc(Br)c1,"inconclusive: 20.6 µM [activator, single point]",–
O=C(COc1ccccc1)NCC(c1ccco1)N1CCN(c2ccc(F)cc2)CC1 (centres undefined),"inconclusive: 7.31 µM [activator, single point]",–
COc1cc(CN2CCCC(C(=O)c3ccc(C(C)(C)C)cc3)C2)cc(OC)c1O (centres undefined),"inconclusive: 18.4 µM [activator, single point]",–
COc1cc(CNCc2cc(OC)ccc2OC)cc(OC)c1,"inconclusive: 29.1 µM [activator, single point]",–
CCOc1ccc(CSc2nc(C)cc(COC)c2C#N)cc1OCC,"inconclusive: 29.1 µM [activator, single point]",–
O=C(Nc1ccc2oc(-c3ccccc3)nc2c1)c1ccc2c(c1)OCCO2,"inconclusive: 16.4 µM [activator, single point]",–
Cc1ccnc(NC(=O)c2cc(-c3ccc(Cl)s3)nc3ccccc23)c1,–,inactive: -295%
CC(C)(C)OC(=O)N1CCCC1C(=O)NCCc1ccccc1 (centres undefined),–,inactive: 0.373%
CC1(C)Cc2c(sc(NC(=O)c3ccc(S(=O)(=O)N4CCCCCC4)cc3)c2C(N)=O)C(C)(C)N1,"inconclusive: 29.1 µM [activator, single point]",–
c1ccc(-n2nnnc2-c2cccc3ccccc23)cc1,active: 5.8 µM,–
Cc1ccc(Cl)c(OCC(=O)NCC(c2cccs2)N2CCOCC2)c1 (centres undefined),"inconclusive: 0.366 µM [activator, partial curve, poor fit]",–
COC1=NC(=C(c2ccccc2)c2ccccc2)OC1=O,–,inactive: 5.15%
CCOc1ccc(NC(=S)N2CCN(S(=O)(=O)c3ccc(C)cc3)CC2)cc1,"inconclusive: 18.4 µM [activator, partial curve, poor fit]",–
COC(=O)c1cccc(NC(=S)Nc2cccc(Cl)c2C)c1,–,inactive: 0.701%
COc1cccc2cc(-c3nnc(SCC(=O)Nc4ccc(NC(C)=O)cc4)n3C)oc12,–,inactive: -5.17%

# Random excerpt: three compounds from above, in no set order.
SMILES,Potency,re-replication activation
COc1cc(CNCc2cc(OC)ccc2OC)cc(OC)c1,"inconclusive: 29.1 µM [activator, single point]",–
CC1(C)Cc2c(sc(NC(=O)c3ccc(S(=O)(=O)N4CCCCCC4)cc3)c2C(N)=O)C(C)(C)N1,"inconclusive: 29.1 µM [activator, single point]",–
COC1=NC(=C(c2ccccc2)c2ccccc2)OC1=O,–,inactive: 5.15%
